Measurements reported in PubChem BioAssay AID602196 (INSERM, 2012).
The deposit covers about 23,000 reagents; this is an unselected part. 455 of all reagents (2%) were called active. 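Active includes both protection and sensitisation; some change values fall well beyond the stated -50 to +50 range.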 Not stated in the record: the amount of reagent.

Assay: 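Modifiers of cisplatin sensitivity in A549 cells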
System: human A549 lung cancer cells
Knock-down reagent: siRNA pair against human genes
Time to read-out: 48 h transfection before cisplatin; time from cisplatin to read-out not stated
Challenge: cisplatin at a dose killing half of control-siRNA cells; exact dose and duration not given
Detection: 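Cisplatin cell death as a shift from the 50% death seen with control siRNA; siRNAs toxic or growth-blocking alone scored 0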
Direction: two-siRNA summed score (-2 to +2): higher = both siRNAs protect from cisplatin killing; -2 means both sensitise; mean protection from cisplatin (shift in death) and protection from cisplatin (shift in death), siRNA C and protection from cisplatin (shift in death), siRNA D: higher = protection from cisplatin killing
Active means: 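siRNAs harmful alone (LDH or WST-1) get 0; others get +1 for less and -1 for more cisplatin killing; genes are active when the two siRNAs give the same sign, summing to ±2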
Meaning of the calls: active = both siRNAs shift cisplatin killing the same way; inactive = no consistent shift, or siRNA harmful alone

The first 3 records, to show the layout:
gene knocked down	PubChem SID	two-siRNA summed score (-2 to +2)	mean protection from cisplatin (shift in death) (%)	protection from cisplatin (shift in death), siRNA C (%)	protection from cisplatin (shift in death), siRNA D (%)	Outcome
COL4A3	SID131522206	1	16.9	33	0.7	inactive
RPS17	SID131518832	0	30.2	24.9	35.5	inactive
ZNF436-AS1	SID131517049	0	12.3	11	13.5	inactive

The listing, repeating the preview:
gene knocked down	PubChem SID	two-siRNA summed score (-2 to +2)	mean protection from cisplatin (shift in death) (%)	protection from cisplatin (shift in death), siRNA C (%)	protection from cisplatin (shift in death), siRNA D (%)	Outcome
COL4A3	SID131522206	1	16.9	33	0.7	inactive
RPS17	SID131518832	0	30.2	24.9	35.5	inactive
ZNF436-AS1	SID131517049	0	12.3	11	13.5	inactive
RIN3	SID131504169	0	-6.3	-7.7	-4.9	inactive
SLC37A3	SID131507757	0	0.3	-5.4	5.9	inactive
LOC440534	SID131515261	0	8.9	9.4	8.4	inactive
FAM107B	SID131500981	-1	-13.6	-18.4	-8.9	inactive
MAPK13	SID131508262	0	0.8	4.9	-3.2	inactive
LOC389633	SID131515641	0	9.5	11.3	7.7	inactive
CLEC12A-AS1	SID131515811	0	9.7	0.8	18.6	inactive
ZMIZ1-AS1	SID131509649	0	2.4	10.8	-6.1	inactive
TRIM64	SID131508446	0	1.1	2.9	-0.8	inactive
SHH	SID131510660	0	3.5	-1.1	8.1	inactive
MRGPRD	SID131515101	0	8.6	14.3	3	inactive
CNPPD1	SID131511331	0	4.2	11.7	-3.3	inactive
ZSWIM2	SID131504594	0	-5	-0.5	-9.5	inactive
VCX2	SID131512019	0	5	4.2	5.9	inactive
ERMAP	SID131522695	1	21.9	35.5	8.3	inactive
ACOT4	SID131506207	0	-1.9	-5	1.2	inactive
LRRC74BNL	SID131507239	0	-0.4	-4	3.2	inactive
ISOC1	SID131510803	0	3.6	0.8	6.5	inactive
CCDC120	SID131503553	0	-9.3	-9.3	-9.3	inactive
LOC388530	SID131518066	0	16.3	16	16.5	inactive
ARHGAP33	SID131505441	0	-3.1	3.8	-10.1	inactive
MREG	SID131504506	0	-5.2	-8.4	-2	inactive
CD1B	SID131511674	0	4.6	13.6	-4.4	inactive
KY	SID131513934	0	7.2	13.9	0.5	inactive
SGTB	SID131511738	0	4.7	8.2	1.2	inactive
LOC401957	SID131516273	0	10.6	10.2	10.9	inactive
KRT6C	SID131518315	0	18.3	20.3	16.3	inactive
KRT6C	SID131518369	0	18.7	18.2	19.3	inactive
DOC2A	SID131519806	1	7.5	21.2	-6.1	inactive
FAM20A	SID131506799	0	-1	-11.7	9.8	inactive
COL1A1	SID131502721	-1	3.6	-11.1	18.3	inactive
TRIM47	SID131521693	1	14.5	24.6	4.3	inactive
HEMGN	SID131517617	0	14.1	17.7	10.5	inactive
CDKL2	SID131513712	0	6.9	4	9.8	inactive
CDR2L	SID131504034	0	-6.7	-9.1	-4.4	inactive
ATF4	SID131522897	1	33.8	57	10.6	inactive
DESI2	SID131500944	-1	-14	-13.1	-14.9	inactive
LOC401499	SID131518171	0	17	14.6	19.5	inactive
CD2AP	SID131500614	-1	-19.5	-6.2	-32.7	inactive
PDCD1	SID131505173	0	-3.6	-1.1	-6.1	inactive
SLC43A3	SID131518161	0	17	24.8	9.1	inactive
RNF212	SID131515726	0	9.6	7.7	11.5	inactive
CCL4L2	SID131506774	0	-1	-1.7	-0.3	inactive
CCR1	SID131521289	1	12.9	-4	29.7	inactive
FLACC1	SID131504207	0	-6.1	4	-16.2	inactive
UBE2L3	SID131500344	-2	-20.2	-23.8	-16.7	active
SDHAF4	SID131502547	-1	-1.1	8.3	-10.5	inactive
EBI3	SID131506288	0	-1.7	12	-15.5	inactive
SMC3	SID131510749	0	3.6	3.3	3.9	inactive
TP53INP2	SID131508418	0	1	10.7	-8.6	inactive
LOC440538	SID131520884	1	11.4	9.3	13.5	inactive
CPNE4	SID131517408	0	13.3	37.4	-10.8	inactive
PNLIPRP1	SID131500523	-1	-23.3	-40.3	-6.3	inactive
HAUS3	SID131515843	0	9.8	-2.7	22.2	inactive
